Data as given in patent US20250283871A1, “COMPOSITIONS AND METHODS FOR MODULATING THE INTERACTION BETWEEN SS18-SSX FUSION ONCOPROTEIN AND NUCLEOSOMES” (Dana-Farber Cancer Institute, Inc., priority 2020, published 2025).

B1: DEK (protein, UniProt P35659 2-375, looked up)
Protein DEK: SASAPAAEGEGTPTQPASEKEPEMPGPREESEEEEDEDDEEEEEEEKEKSLIVEGKREKKKVERLTMQVSSLQREPFTIAQGKGQKLCEIERIHFFLSKKKTDELRNLHKLLYNRPGTVSSLKKNVGQFSGFPFEKGSVQYKKKEEMLKKFRNAMLKSICEVLDLERSGVNSELVKRILNFLMHPKPSGKPLPKSKKTCSKGSKKERNSSGMARKAKRTKCPEILSDESSSDEDEKKNKEESSDDEDKESEEEPPKKTAKREKPKQKATSKSKKSVKSANVKKADSSTTKKNQNSSKKESESEDSSDDEPLIKKLKKPPTDEELKETIKKLLASANLEEVTMKQICKKVYENYPTYDLTERKDFIKTTVKELIS
B2: NR2F2 (protein, UniProt P24468 1-414, looked up)
COUP transcription factor 2: MAMVVSTWRDPQDEVPGSQGSQASQAPPVPGPPPGAPHTPQTPGQGGPASTPAQTAAGGQGGPGGPGSDKQQQQQHIECVVCGDKSSGKHYGQFTCEGCKSFFKRSVRRNLSYTCRANRNCPIDQHHRNQCQYCRLKKCLKVGMRREAVQRGRMPPTQPTHGQFALTNGDPLNCHSYLSGYISLLLRAEPYPTSRFGSQCMQPNNIMGIENICELAARMLFSAVEWARNIPFFPDLQITDQVALLRLTWSELFVLNAAQCSMPLHVAPLLAAAGLHASPMSADRVVAFMDHIRIFQEQVEKLKALHVDSAEYSCLKAIVLFTSDACGLSDVAHVESLQEKSQCALEEYVRSQYPNQPTRFGKLLLRLPSLRTVSSSVIEQLFFVRLVGKTPIETLIRDMLLSGSSFNWPYMAIQ
B3: SYPL1 (protein, UniProt Q16563 1-259, looked up)
Synaptophysin-like protein 1: MAPNIYLVRQRISRLGQRMSGFQINLNPLKEPLGFIKVLEWIASIFAFATCGGFKGQTEIQVNCPPAVTENKTVTATFGYPFRLNEASFQPPPGVNICDVNWKDYVLIGDYSSSAQFYVTFAVFVFLYCIAALLLYVGYTSLYLDSRKLPMIDFVVTLVATFLWLVSTSAWAKALTDIKIATGHNIIDELPPCKKKAVLCYFGSVTSMGSLNVSVIFGFLNMILWGGNAWFVYKETSLHSPSNTSAPHSQGGIPPPTGI
B4: PARL (protein, UniProt Q9H300 53-379, looked up)
Presenilin-associated …: FRKAPRKVEPRRSDPGTSGEAYKRSALIPPVEETVFYPSPYPIRSLIKPLFFTVGFTGCAFGSAAIWQYESLKSRVQSYFDGIKADWLDSIRPQKEGDFRKEINKWWNNLSDGQRTVTGIIAANVLVFCLWRVPSLQRTMIRYFTSNPASKVLCSPMLLSTFSHFSLFHMAANMYVLWSFSSSIVNILGQEQFMAVYLSAGVISNFVSYVGKVATGRYGPSLGASGAIMTVLAAVCTKIPEGRLAIIFLPMFTFTAGNALKAIIAMDTAGMILGWKFFDHAAHLGGALFGIWYVTYGHELIWKNREPLVKIWHEIRTNGPKKGGGSK
B5: ALDH2 (protein, UniProt P05091 18-517, looked up)
Aldehyde dehydrogenase, …: SAAATQAVPAPNQQPEVFCNQIFINNEWHDAVSRKTFPTVNPSTGEVICQVAEGDKEDVDKAVKAARAAFQLGSPWRRMDASHRGRLLNRLADLIERDRTYLAALETLDNGKPYVISYLVDLDMVLKCLRYYAGWADKYHGKTIPIDGDFFSYTRHEPVGVCGQIIPWNFPLLMQAWKLGPALATGNVVVMKVAEQTPLTALYVANLIKEAGFPPGVVNIVPGFGPTAGAAIASHEDVDKVAFTGSTEIGRVIQVAAGSSNLKRVTLELGGKSPNIIMSDADMDWAVEQAHFALFFNQGQCCCAGSRTFVQEDIYDEFVERSVARAKSRVVGNPFDSKTEQGPQVDETQFKKILGYINTGKQEGAKLLCGGGIAADRGYFIQPTVFGDVQDGMTIAKEEIFGPVMQILKFKTIEEVVGRANNSTYGLAAAVFTKDLDKANYLSQALQAGTVWVNCYDVFGAQSPFGGYKMSGSGRELGEYGLQAYTEVKTVTVKVPQKNS
B6: ORC1 (protein, UniProt Q13415 1-861, looked up)
Origin recognition complex …: MAHYPTRLKTRKTYSWVGRPLLDRKLHYQTYREMCVKTEGCSTEIHIQIGQFVLIEGDDDENPYVAKLLELFEDDSDPPPKKRARVQWFVRFCEVPACKRHLLGRKPGAQEIFWYDYPACDSNINAETIIGLVRVIPLAPKDVVPTNLKNEKTLFVKLSWNEKKFRPLSSELFAELNKPQESAAKCQKPVRAKSKSAESPSWTPAEHVAKRIESRHSASKSRQTPTHPLTPRARKRLELGNLGNPQMSQQTSCASLDSPGRIKRKVAFSEITSPSKRSQPDKLQTLSPALKAPEKTRETGLSYTEDDKKASPEHRIILRTRIAASKTIDIREERTLTPISGGQRSSVVPSVILKPENIKKRDAKEAKAQNEATSTPHRIRRKSSVLTMNRIRQQLRFLGNSKSDQEEKEILPAAEISDSSSDEEEASTPPLPRRAPRTVSRNLRSSLKSSLHTLTKVPKKSLKPRTPRCAAPQIRSRSLAAQEPASVLEEARLRLHVSAVPESLPCREQEFQDIYNFVESKLLDHTGGCMYISGVPGTGKTATVHEVIRCLQQAAQANDVPPFQYIEVNGMKLTEPHQVYVQILQKLTGQKATANHAAELLAKQFCTRGSPQETTVLLVDELDLLWTHKQDIMYNLFDWPTHKEARLVVLAIANTMDLPERIMMNRVSSRLGLTRMCFQPYTYSQLQQILRSRLKHLKAFEDDAIQLVARKVAALSGDARRCLDICRRATEICEFSQQKPDSPGLVTIAHSMEAVDEMFSSSYITAIKNSSVLEQSFLRAILAEFRRSGLEEATFQQIYSQHVALCRMEGLPYPTMSETMAVCSHLGSCRLLLVEPSRNDLLLRVRLNVSQDDVLYALKDE
B7: YTHDF2 (protein, UniProt Q9Y5A9 2-579, looked up)
YTH domain-containing family …: SASSLLEQRPKGQGNKVQNGSVHQKDGLNDDDFEPYLSPQARPNNAYTAMSDSYLPSYYSPSIGFSYSLGEAAWSTGGDTAMPYLTSYGQLSNGEPHFLPDAMFGQPGALGSTPFLGQHGFNFFPSGIDFSAWGNNSSQGQSTQSSGYSSNYAYAPSSLGGAMIDGQSAFANETLNKAPGMNTIDQGMAALKLGSTEVASNVPKVVGSAVGSGSITSNIVASNSLPPATIAPPKPASWADIASKPAKQQPKLKTKNGIAGSSLPPPPIKHNMDIGTWDNKGPVAKAPSQALVQNIGQPTQGSPQPVGQQANNSPPVAQASVGQQTQPLPPPPPQPAQLSVQQQAAQPTRWVAPRNRGSGFGHNGVDGNGVGQSQAGSGSTPSEPHPVLEKLRSINNYNPKDFDWNLKHGRVFIIKSYSEDDIHRSIKYNIWCSTEHGNKRLDAAYRSMNGKGPVYLLFSVNGSGHFCGVAEMKSAVDYNTCAGVWSQDKWKGRFDVRWIFVKDVPNSQLRHIRLENNENKPVTNSRDTQEVPLEKAKQVLKIIASYKHTTSIFDDFSHYEKRQEEEESVKKERQGRGK
B8: TOR1A (protein, UniProt O14656 21-332, looked up)
Torsin-1A: VEPISLGLALAGVLTGYIYPRLYCLFAECCGQKRSLSREALQKDLDDNLFGQHLAKKIILNAVFGFINNPKPKKPLTLSLHGWTGTGKNFVSKIIAENIYEGGLNSDYVHLFVATLHFPHASNITLYKDQLQLWIRGNVSACARSIFIFDEMDKMHAGLIDAIKPFLDYYDLVDGVSYQKAMFIFLSNAGAERITDVALDFWRSGKQREDIKLKDIEHALSVSVFNNKNSGFWHSSLIDRNLIDYFVPFLPLEYKHLKMCIRVEMQSRGYEIDEDIVSRVAEEMTFFPKEERVFSDKGCKTVFTKLDYYYDD
B9: GGT7 (protein, UniProt Q9UJ14 1-472; Q9UJ14 473-662, looked up)
Glutathione hydrolase 7 heavy …: MAAENEASQESALGAYSPVDYMSITSFPRLPEDEPAPAAPLRGRKDEDAFLGDPDTDPDSFLKSARLQRLPSSSSEMGSQDGSPLRETRKDPFSAAAAECSCRQDGLTVIVTACLTFATGVTVALVMQIYFGDPQIFQQGAVVTDAARCTSLGIEVLSKQGSSVDAAVAAALCLGIVAPHSSGLGGGGVMLVHDIRRNESHLIDFRESAPGALREETLQRSWETKPGLLVGVPGMVKGLHEAHQLYGRLPWSQVLAFAAAVAQDGFNVTHDLARALAEQLPPNMSERFRETFLPSGRPPLPGSLLHRPDLAEVLDVLGTSGPAAFYAGGNLTLEMVAEAQHAGGVITEEDFSNYSALVEKPVCGVYRGHLVLSPPPPHTGPALISALNILEGFNLTSLVSREQALHWVAETLKIALALASRLGDPVYDSTITESMDDMLSKVEAAYLRGHINDSQAAPAPLLPVYELDGAPT
Glutathione hydrolase 7 light …: AAQVLIMGPDDFIVAMVSSLNQPFGSGLITPSGILLNSQMLDFSWPNRTANHSAPSLENSVQPGKRPLSFLLPTVVRPAEGLCGTYLALGANGAARGLSGLTQVLLNVLTLNRNLSDSLARGRLHPDLQSNLLQVDSEFTEEEIEFLEARGHHVEKVDVLSWVHGSRRTNNFIIAVKDPRSPDAAGATIL
B10: DHCR24 (protein, UniProt Q15392 23-516, looked up)
Delta(24)-sterol reductase: LEFVLIHQRWVFVCLFLLPLSLIFDIYYYVRAWVVFKLSSAPRLHEQRVRDIQKQVREWKEQGSKTFMCTGRPGWLTVSLRVGKYKKTHKNIMINLMDILEVDTKKQIVRVEPLVTMGQVTALLTSIGWTLPVLPELDDLTVGGLIMGTGIESSSHKYGLFQHICTAYELVLADGSFVRCTPSENSDLFYAVPWSCGTLGFLVAAEIRIIPAKKYVKLRFEPVRGLEAICAKFTHESQRQENHFVEGLLYSLDEAVIMTGVMTDEAEPSKLNSIGNYYKPWFFKHVENYLKTNREGLEYIPLRHYYHRHTRSIFWELQDIIPFGNNPIFRYLFGWMVPPKISLLKLTQGETLRKLYEQHHVVQDMLVPMKCLQQALHTFQNDIHVYPIWLCPFILPSQPGLVHPKGNEAELYIDIGAYGEPRVKHFEARSCMRQLEKFVRSVHGFQMLYADCYMNREEFWEMFDGSLYHKLREKLGCQDAFPEVYDKICKAARH

tested on: BAF complex subunits and histone proteins; test: Mass spectrometry proteomics of purified HA-SS18 WT and HA-SS18-SSX1 complexes (Tables 5A-5E); parameters: species or system human; details: HA-SS18SSX1_NE_peptides: protein co-purified with HA-SS18-SSX1 BAF complexes from soluble nuclear extract (NE), HEK-293T cells

| Molecule | Total (peptides) | Unique (peptides) |
| --- | --- | --- |
| B1 | 1 | 1 |
| B2 | 1 | 1 |
| B3 | 1 | 1 |
| B4 | 1 | 1 |
| B5 | 1 | 1 |
| B6 | 1 | 1 |
| B7 | 1 | 1 |
| B8 | 1 | 1 |
| B9 | 1 | 1 |
| B10 | 1 | 1 |

same assay, conditions: HA-SS18WT_CHR_peptides: protein identified in HA-SS18 WT BAF complex purification from nuclease-treated solubilized chromatin (CHR), HEK-293T

| Molecule | Total (total peptides) | Unique (unique peptides) |
| --- | --- | --- |
| B6 | 1 | 1 |

same assay, conditions: HA-SS18WT_NE_peptides: HA-SS18 WT complexes purified from nuclear extract (NE), HEK-293T; label = protein identified (Gene Symbol)

| Molecule | Total (peptides) | Unique (peptides) |
| --- | --- | --- |
| B2 | 3 | 3 |

same assay, conditions: HA-SS18WT_NE_peptides: proteins co-purified with HA-SS18 WT from nuclear extract (NE), HEK-293T

| Molecule | Total (peptides) | Unique (peptides) |
| --- | --- | --- |
| B3 | 1 | 1 |
| B4 | 2 | 2 |
| B10 | 1 | 1 |
